According to ChEMBL document CHEMBL1152629, “Discovery and structure-activity relationship analysis of Staphylococcus aureus sortase A inhibitors” (Bioorg Med Chem, 2009):

Test: Inhibition of Staphylococcus aureus sortase A deltaN59 mutant assessed as Dap(Dnp) hydrolysis by FRET assay

For CN1[C@@H]2CC[C@H]1C[C@@H](OC(=O)C(O)c1ccccc1)C2 (stereo partly specified) [HOMATROPINE], which IC50 is on record?
The IC50 was greater than 50 µM.
